Source: the supplement of paper PMC12889115
Some of the results follow. These are raw signals, not scaled to a control.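 Primary screen: polymyxin B was added at a level permeabilizing Salmonella outer membranes while sparing inner membranes. DMSO wells, both with and without polymyxin B, established maximum growth. Plate-to-plate variation meant each plate was ranked on its own, and the lowest-OD600 compounds were selected as hits.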

System: Salmonella enterica serovar Typhimurium SL1344
Experiment: bacterial growth OD600 after 18 h with compound and polymyxin B; higher = more bacterial growth (less inhibition)
Settings: 50 µM, Mueller-Hinton broth

| Compound | bacterial growth OD600 (polymyxin B 0.75 µg/mL) | bacterial growth OD600 (polymyxin B 1 µg/mL) |
| --- | --- | --- |
| CC(C)(O)C(=O)N1CCC(n2c(C3CCCO3)nc3cc(C(F)(F)F)ccc32)CC1 (stereo not given) | 0.869 |  |
| Cc1cc(C)cc(C(=O)N2CCC(C3(Cc4cccc(F)c4)NC(=O)N(CCN(C)C)C3=O)CC2)c1 (stereo not given) | 0.845 |  |
| COC(=O)c1ccc(CN2CCN(Cc3ccc(OC)c(C)c3)C(CCO)C2)cc1 (stereo not given) |  | 1.04 |
| CCN(CC)C(=O)CCc1nnc(-c2ccc(C(C)=O)s2)o1 | 0.798 |  |
| COCC(=O)Nc1cc(C(=O)NC2CCCN(Cc3ccccc3)C2)c2c(c1)nc(C1CCC1)n2C (stereo not given) | 0.813 |  |
| CCOC(=O)C1(Cc2ccc(F)cc2)CCCN(C(=O)C2CCC2)C1 (stereo not given) |  | 0.857 |
| CC(=O)N1CCCN(C(=O)c2csc3nc(-c4ccccc4C)cn23)CC1 |  | 0.929 |
| COc1ccc(-c2n[nH]cc2CN(CC2CCC2)CC2CCCO2)c(OC)c1 (stereo not given) |  | 0.74 |
| Cc1cccc(CN2CCC(N3CCC(C(=O)NCCc4ccco4)CC3)CC2)n1 |  | 1 |
| CCCCN(C)C(=O)c1coc(COc2ccccc2)n1 |  | 0.831 |
| COc1ccc(CCNC(=O)c2cn(C3CCCCC3)cc(C(=O)NC3CC3)c2=O)cc1 | 0.011 |  |
| O=C(c1cscn1)N1CCCC(CCc2ccc(F)cc2F)C1 (stereo not given) | 0.854 |  |
| COc1ccc(CCC2CCCN(C(=O)CC(F)(F)F)C2)cc1 (stereo not given) | 0.67 |  |
| Cc1nonc1CN(C)C(=O)c1csc2nc(-c3cccc(C(F)(F)F)c3)cn12 |  | 0.006 |
| O=C(COc1ncnc2ccccc12)NC1CCCN(CC2CCCCC2)C1 (stereo not given) |  | 1.17 |
| CCN1CCCC1CNC(=O)CCC1CCN(Cc2c(C)nn(C)c2Cl)CC1 (stereo not given) | 0.89 |  |
| CC(C)CCC1(C2CCN(C(=O)/C=C/c3ccc(Cl)cc3)CC2)NC(=O)N(CCN(C)C)C1=O (stereo not given) | 0.004 |  |
| C=CCC(=O)NC1CC(=O)N(CCc2cccc(Cl)c2)C1 (stereo not given) |  | 0.743 |
| COc1ccccc1Oc1ncccc1CNC(=O)[C@@H]1CCCN1C(C)=O |  | 0.931 |
| CS(=O)(=O)N1CCC2(CCCN(Cc3ccc(F)c(F)c3)C2=O)C1 (stereo not given) |  | 0.931 |

Looked up by compound from the list above, two records:

| Compound | bacterial growth OD600 (polymyxin B 0.75 µg/mL) | bacterial growth OD600 (polymyxin B 1 µg/mL) |
| --- | --- | --- |
| CCOC(=O)C1(Cc2ccc(F)cc2)CCCN(C(=O)C2CCC2)C1 (stereo not given) |  | 0.857 |
| C=CCC(=O)NC1CC(=O)N(CCc2cccc(Cl)c2)C1 (stereo not given) |  | 0.743 |
